In publication PMC4991666:
No constants are given. Whether binding was seen depends on the method and setting. For some of these results: In cells and extracts the contact can be indirect. Some entries that bind do so weakly or less than the wild type. For some of these results: Tags and fused reporters may be left off the sequences shown.

Sequences of proteins named here, by UniProt entry; tags and fusion partners are left off.
UniProt Q9UBN7: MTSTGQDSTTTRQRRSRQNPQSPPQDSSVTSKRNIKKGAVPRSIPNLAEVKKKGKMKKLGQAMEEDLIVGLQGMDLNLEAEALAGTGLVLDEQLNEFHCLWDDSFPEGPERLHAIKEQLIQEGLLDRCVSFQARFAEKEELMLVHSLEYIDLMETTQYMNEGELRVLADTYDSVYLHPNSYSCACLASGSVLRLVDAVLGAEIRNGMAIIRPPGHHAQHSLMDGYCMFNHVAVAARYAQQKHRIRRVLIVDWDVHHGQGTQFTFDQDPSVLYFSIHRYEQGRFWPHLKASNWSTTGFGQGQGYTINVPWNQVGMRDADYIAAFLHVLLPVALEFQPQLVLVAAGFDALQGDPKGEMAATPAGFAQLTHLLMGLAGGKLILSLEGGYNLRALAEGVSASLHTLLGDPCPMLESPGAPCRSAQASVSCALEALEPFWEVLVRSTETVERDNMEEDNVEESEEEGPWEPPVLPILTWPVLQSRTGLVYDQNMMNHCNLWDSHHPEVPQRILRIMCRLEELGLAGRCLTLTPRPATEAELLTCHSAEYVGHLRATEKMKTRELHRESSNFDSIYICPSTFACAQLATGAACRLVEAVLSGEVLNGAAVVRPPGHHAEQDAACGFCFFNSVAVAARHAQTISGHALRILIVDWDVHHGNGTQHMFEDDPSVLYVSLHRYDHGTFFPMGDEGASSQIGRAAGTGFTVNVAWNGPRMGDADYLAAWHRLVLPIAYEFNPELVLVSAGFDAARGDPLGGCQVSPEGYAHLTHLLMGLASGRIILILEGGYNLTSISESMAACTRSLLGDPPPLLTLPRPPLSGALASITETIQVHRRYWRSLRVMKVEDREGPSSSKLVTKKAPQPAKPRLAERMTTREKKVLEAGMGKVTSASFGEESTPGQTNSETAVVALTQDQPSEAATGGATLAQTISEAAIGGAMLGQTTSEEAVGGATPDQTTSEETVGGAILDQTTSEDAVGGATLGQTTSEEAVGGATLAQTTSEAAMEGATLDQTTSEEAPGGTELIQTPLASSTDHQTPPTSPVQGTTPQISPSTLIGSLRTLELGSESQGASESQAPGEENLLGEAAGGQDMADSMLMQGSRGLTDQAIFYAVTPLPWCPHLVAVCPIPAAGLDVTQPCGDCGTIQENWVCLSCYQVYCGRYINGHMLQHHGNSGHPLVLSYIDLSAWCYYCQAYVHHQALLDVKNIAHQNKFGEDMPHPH
UniProt P53350: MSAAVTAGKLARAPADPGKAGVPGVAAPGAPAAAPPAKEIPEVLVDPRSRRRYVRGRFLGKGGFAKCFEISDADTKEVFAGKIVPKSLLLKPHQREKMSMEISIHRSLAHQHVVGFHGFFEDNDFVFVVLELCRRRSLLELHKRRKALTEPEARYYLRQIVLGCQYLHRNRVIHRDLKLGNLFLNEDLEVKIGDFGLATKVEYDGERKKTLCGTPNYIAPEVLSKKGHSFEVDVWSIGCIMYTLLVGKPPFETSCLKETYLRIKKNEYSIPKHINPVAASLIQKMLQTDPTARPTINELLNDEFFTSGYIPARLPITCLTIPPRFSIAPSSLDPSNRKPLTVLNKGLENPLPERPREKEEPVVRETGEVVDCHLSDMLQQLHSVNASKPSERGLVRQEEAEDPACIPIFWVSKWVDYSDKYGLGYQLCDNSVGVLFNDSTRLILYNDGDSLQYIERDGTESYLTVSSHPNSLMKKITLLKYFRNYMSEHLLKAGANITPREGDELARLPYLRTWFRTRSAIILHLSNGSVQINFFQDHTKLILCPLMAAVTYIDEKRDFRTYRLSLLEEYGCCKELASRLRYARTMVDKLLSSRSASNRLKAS

T1: GST:Kin1 (Kin1 fused to GST) (UniProt Q9BQL6)
T1 sequence: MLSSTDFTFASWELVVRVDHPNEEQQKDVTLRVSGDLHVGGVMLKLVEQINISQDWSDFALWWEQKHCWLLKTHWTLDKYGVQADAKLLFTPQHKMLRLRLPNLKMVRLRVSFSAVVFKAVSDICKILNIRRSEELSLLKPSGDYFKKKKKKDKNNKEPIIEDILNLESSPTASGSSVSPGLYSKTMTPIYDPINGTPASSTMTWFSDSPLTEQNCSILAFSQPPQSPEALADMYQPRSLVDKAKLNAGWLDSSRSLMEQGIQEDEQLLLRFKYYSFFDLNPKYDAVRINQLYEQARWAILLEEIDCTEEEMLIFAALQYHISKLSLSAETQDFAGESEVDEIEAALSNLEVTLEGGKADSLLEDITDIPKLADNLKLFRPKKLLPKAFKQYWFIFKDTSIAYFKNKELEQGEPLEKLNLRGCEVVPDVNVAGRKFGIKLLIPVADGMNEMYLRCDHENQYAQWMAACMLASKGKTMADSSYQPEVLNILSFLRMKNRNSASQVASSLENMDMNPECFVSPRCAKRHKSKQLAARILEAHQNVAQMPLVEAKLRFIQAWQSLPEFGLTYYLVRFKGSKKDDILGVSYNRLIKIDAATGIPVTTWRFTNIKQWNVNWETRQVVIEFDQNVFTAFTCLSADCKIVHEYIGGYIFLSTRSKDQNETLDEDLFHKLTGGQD

T2: Kin1:GFP (Kindlin 1 fused to GFP) (UniProt Q9BQL6)
T2 sequence: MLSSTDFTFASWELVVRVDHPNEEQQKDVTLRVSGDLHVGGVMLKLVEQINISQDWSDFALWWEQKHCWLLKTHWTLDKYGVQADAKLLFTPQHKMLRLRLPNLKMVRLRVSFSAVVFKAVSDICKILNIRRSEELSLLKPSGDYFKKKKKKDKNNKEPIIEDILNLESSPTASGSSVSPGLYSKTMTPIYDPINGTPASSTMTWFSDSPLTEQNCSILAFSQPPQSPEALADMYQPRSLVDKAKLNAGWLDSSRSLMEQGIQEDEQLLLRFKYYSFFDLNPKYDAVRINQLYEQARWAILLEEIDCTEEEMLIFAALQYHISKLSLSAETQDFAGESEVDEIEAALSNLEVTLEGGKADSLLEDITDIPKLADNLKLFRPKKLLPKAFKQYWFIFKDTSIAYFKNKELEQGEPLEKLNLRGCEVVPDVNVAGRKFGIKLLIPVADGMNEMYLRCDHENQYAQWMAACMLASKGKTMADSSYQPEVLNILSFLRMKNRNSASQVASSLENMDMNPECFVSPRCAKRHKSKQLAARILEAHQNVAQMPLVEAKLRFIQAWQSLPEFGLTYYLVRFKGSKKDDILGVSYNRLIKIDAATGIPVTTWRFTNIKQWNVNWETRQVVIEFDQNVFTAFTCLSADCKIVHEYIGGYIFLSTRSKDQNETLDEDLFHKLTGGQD


How the values were obtained:
[1] = biological target: T1, GST:Kin1 (Kin1 fused to GST); assay: pull-down; in vitro binding assay: recombinant HDAC6 (100 ng) with GST:Kin1 or GST alone in PBS + 0.1% Triton X-100, 30 min, room temperature; both purified
[2] = biological target: T2, Kin1:GFP (Kindlin 1 fused to GFP); assay: pull-down; GFP pull down with GFP-Trap agarose beads from 0.25-1 mg lysate (NP40 buffer: 25 mM Tris, 150 mM NaCl, 0.5% NP40, pH 7.6) of cells expressing Kin1:GFP or GFP, room temperature 30-45 min, blots of the bound proteins; also after treatment of the cells with DMSO, tubacin, BI2536 or nocodazole
[3] = biological target: HDAC6 (histone deacetylase 6), endogenous (human (endogenous in MDA-MB-231)) (UniProt Q9UBN7); assay: co-IP; lysate (NP40 buffer) incubated with agarose beads pre-conjugated with anti-HDAC6, anti-al-tub or anti-ac-tub antibody, room temperature 30-45 min; blot for endogenous Kin1

| binding [2] | Molecule | further results |
| --- | --- | --- |
|  | full-length recombinant HDAC6 (from UniProt Q9UBN7 1-1215) (enzyme) | binding [1]: binds |
| binds | HDAC6 (histone deacetylase 6), endogenous (from UniProt Q9UBN7 1-1215) (enzyme) |  |
| binds | Plk1, endogenous (from UniProt P53350 1-603) (enzyme) |  |
|  | Kindlin 1 (Kin1), endogenous (protein, UniProt Q9BQL6 1-677) MLSSTDFTFASWELVVRVDHPNEEQQKDVTLRVSGDLHVGGVMLKLVEQINISQDWSDFALWWEQKHCWLLKTHWTLDKYGVQADAKLLFTPQHKMLRLRLPNLKMVRLRVSFSAVVFKAVSDICKILNIRRSEELSLLKPSGDYFKKKKKKDKNNKEPIIEDILNLESSPTASGSSVSPGLYSKTMTPIYDPINGTPASSTMTWFSDSPLTEQNCSILAFSQPPQSPEALADMYQPRSLVDKAKLNAGWLDSSRSLMEQGIQEDEQLLLRFKYYSFFDLNPKYDAVRINQLYEQARWAILLEEIDCTEEEMLIFAALQYHISKLSLSAETQDFAGESEVDEIEAALSNLEVTLEGGKADSLLEDITDIPKLADNLKLFRPKKLLPKAFKQYWFIFKDTSIAYFKNKELEQGEPLEKLNLRGCEVVPDVNVAGRKFGIKLLIPVADGMNEMYLRCDHENQYAQWMAACMLASKGKTMADSSYQPEVLNILSFLRMKNRNSASQVASSLENMDMNPECFVSPRCAKRHKSKQLAARILEAHQNVAQMPLVEAKLRFIQAWQSLPEFGLTYYLVRFKGSKKDDILGVSYNRLIKIDAATGIPVTTWRFTNIKQWNVNWETRQVVIEFDQNVFTAFTCLSADCKIVHEYIGGYIFLSTRSKDQNETLDEDLFHKLTGGQD | binding [3]: binds |
